Source: PubChem BioAssay AID1159506 (NCATS, 2015).

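Genome-wide siRNA knockdown in TC32 Ewing sarcoma cells, comparing luciferase light from an NR0B1-promoter reporter with a CMV-promoter reporter 48 hours after transfection. Each siRNA was applied at 20 nM. A z-score of the log NR0B1-over-CMV signal, less the median of siRNAs with the same seed; more negative means a stronger specific loss of the NR0B1 reporter.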

The strongest results of the screen are mostly left out here. Sequences are the guide (antisense) strand, without overhang.

{"strand": "AAACGUAUUCAUGCAGCUC", "target gene": "EXT1", "seed-corrected z-score": "-1.121"}
{"strand": "UUUCCAUCUAUAUUAUUGC", "target gene": "NXNL2", "seed-corrected z-score": "0.4987"}
{"strand": "UCAUAUACAAUGCGAGGCC", "target gene": "LRRK1", "seed-corrected z-score": "-1.765"}
{"strand": "UAUCGUAUUCCGAACAUCA", "target gene": "RIBC2", "seed-corrected z-score": "0.3592"}
{"strand": "ACAAGGUUAAAAUUUGCGG", "target gene": "IL1R2", "seed-corrected z-score": "0.4162"}
{"strand": "UAGGUGACAACGAAGACAG", "target gene": "TMBIM1", "seed-corrected z-score": "-0.5716"}
{"strand": "ACAAUUGAUACGAUGAUGA", "target gene": "VAMP7", "seed-corrected z-score": "-0.04791"}
{"strand": "UUUCGAAAACUCAUAAGGG", "target gene": "ANO2", "seed-corrected z-score": "0.5188"}
{"strand": "UUCGGUACCAGUCGGAUUC", "target gene": "BANP", "seed-corrected z-score": "1.105"}
{"strand": "UUAUCCUUGACUUGUUGCC", "target gene": "PSPH", "seed-corrected z-score": "-0.4609"}
{"strand": "UCGGUGAUAAGCAAGGUCA", "target gene": "SHISA4", "seed-corrected z-score": "-0.8078"}
{"strand": "AUCUUGUUACAGAUGAUGC", "target gene": "WNT7A", "seed-corrected z-score": "0.1163"}
{"strand": "UCGCAAAUCACUGAAUCGC", "target gene": "EXOC1", "seed-corrected z-score": "0.1149"}
{"strand": "UAAGACAAGAGAUUCUCCG", "target gene": "NEUROD2", "seed-corrected z-score": "-0.2308"}
{"strand": "AAGCUUCUGAGUGUAUUCC", "target gene": "CEP112", "seed-corrected z-score": "-0.4045"}
{"strand": "AUUCUUCUAAGUCUCGACU", "target gene": "ORMDL3", "seed-corrected z-score": "0.1214"}
{"strand": "UGGUUGUCAACCUUGACCU", "target gene": "SYN1", "seed-corrected z-score": "-0.1217"}
{"strand": "UAUUAUGUCUGUUGAGUAG", "target gene": "TRIP13", "seed-corrected z-score": "-0.02473"}
{"strand": "UUUCAAUCAUCUUUUGCAC", "target gene": "ARHGAP6", "seed-corrected z-score": "-0.1381"}
{"strand": "UCUGGGAACUGACAAAGCC", "target gene": "SPRR2B", "seed-corrected z-score": "-0.1037"}
{"strand": "UAAUUUCGGGUAGCAGUUC", "target gene": "NASP", "seed-corrected z-score": "-0.5384"}
{"strand": "UUCCAAAUCGCAAUGUUCC", "target gene": "CEPT1", "seed-corrected z-score": "0.5764"}
{"strand": "UGCGCAUAUAGUAAUAGAC", "target gene": "SMG6", "seed-corrected z-score": "-0.2956"}
{"strand": "AAGCAUAUGAUGUAGCCCG", "target gene": "GPR171", "seed-corrected z-score": "-0.6562"}
{"strand": "UGCUUUUACGGUAUUUUCC", "target gene": "LOC730110", "seed-corrected z-score": "1.61"}
{"strand": "UUUUGUCUAAAGAAAUCUC", "target gene": "DRD5", "seed-corrected z-score": "-0.02051"}
{"strand": "UUCAUCUAAAAUCUGCUUC", "target gene": "NF2", "seed-corrected z-score": "-0.4444"}
{"strand": "UACGAGGCAAGCACGGACA", "target gene": "ATP13A1", "seed-corrected z-score": "0.223"}
{"strand": "UACUUGACCAGGCAGUCAU", "target gene": "RNF222", "seed-corrected z-score": "0.9748"}
{"strand": "AAGUUGAUCAUAGCCUUGG", "target gene": "OR9K2", "seed-corrected z-score": "-1.036"}
{"strand": "ACAUGUGCAAAAACAAGUC", "target gene": "SDC1", "seed-corrected z-score": "2.309"}
{"strand": "UAUCUGAAAACUGACUCUU", "target gene": "CHID1", "seed-corrected z-score": "0.1553"}
{"strand": "AAAUGGGUUUCAACAAUUC", "target gene": "GNAI1", "seed-corrected z-score": "0.4313"}
{"strand": "UUCGUCCCGGUAGAACACG", "target gene": "FAM84B", "seed-corrected z-score": "-0.1891"}
{"strand": "AUAUGCAUUAGAAUGUCCG", "target gene": "HAGH", "seed-corrected z-score": "-0.2798"}
{"strand": "AACCGGUCAAGCAGCGUGU", "target gene": "XRCC3", "seed-corrected z-score": "-0.03133"}
{"strand": "AUCACCACCACUUUGUUCU", "target gene": "DHRS7C", "seed-corrected z-score": "0.4605"}
{"strand": "UCAGGGAUACUUGUUCUAG", "target gene": "CEP19", "seed-corrected z-score": "-0.8964"}
{"strand": "UCUUAAGUAAGUGAACAGC", "target gene": "MRPL1", "seed-corrected z-score": "0.5488"}
{"strand": "AUAAUUACCCUUGCGGAGC", "target gene": "HIST1H2AH", "seed-corrected z-score": "-0.4399"}
{"strand": "UGUAGAAAGGCUUCCAUCU", "target gene": "HYAL3", "seed-corrected z-score": "0.1037"}
{"strand": "UAGCUUGUGAGGGAUACGG", "target gene": "KMT2E", "seed-corrected z-score": "-1.534"}
{"strand": "AAUGGUCACACUCCAAACG", "target gene": "CHAMP1", "seed-corrected z-score": "0.3404"}
{"strand": "UGCAGUUCAGUUUUACAGC", "target gene": "GNE", "seed-corrected z-score": "0.5975"}
{"strand": "UUCUUUACCGGCAUCACUC", "target gene": "CASP2", "seed-corrected z-score": "-0.212"}
{"strand": "UUUGUUCUGCUCGUAAUUC", "target gene": "CHSY1", "seed-corrected z-score": "0.3956"}

For reference, 4 entries once more:

- UCAUAUACAAUGCGAGGCC against LRRK1 : seed-corrected z-score -1.765
- UUCAUCUAAAAUCUGCUUC against NF2 : seed-corrected z-score -0.4444
- ACAUGUGCAAAAACAAGUC against SDC1 : seed-corrected z-score 2.309
- ACAAGGUUAAAAUUUGCGG against IL1R2 : seed-corrected z-score 0.4162